Screening data, single-dose tests

Values are the deposited “Percent Effect”, in %.
The record does not define 0% and 100%; most values in the screen are far below 50% and negative numbers occur (in some assays of this library far below -100).
This is an unselected part of the compounds tested.
Two or more numbers in one place are separate tests of the same structure; such repeats can differ widely.

Mtb cholesterol medium: 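Whole-cell growth test on Mycobacterium tuberculosis, read after 4 days in a medium based on cholesterol and the lipid DPPC; the read-out is not stated. Concentration: 50 µM. Higher reads as more growth inhibition (inferred: compounds with an IC50 in retests scored well above the rest). Of about 69,000 compounds tested this way, about 370 (0.54%) reached 50% or more in at least one test.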
Mtb glucose medium: 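Phenotypic screen: M. tuberculosis growth, glucose 7H9 medium, 3 days; the read-out is not stated. Tested at 50 µM. Higher reads as more growth inhibition (inferred: compounds with an IC50 in retests scored well above the rest). Of about 69,000 compounds tested this way, about 760 (1.1%) reached 50% or more in at least one test.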

{"structure": "O=S(=O)(N1CCOCC1)N1CCCC1Cn1cccn1", "stereo": "centres unmarked", "Mtb cholesterol medium": -5.62, "Mtb glucose medium": -29.04}
{"structure": "O=C(O)c1cc(-c2ccncc2)cc(S(=O)(=O)NCc2ccccn2)c1", "Mtb cholesterol medium": -3.6, "Mtb glucose medium": 1.962}
{"structure": "O=C(c1ccc(=O)[nH]n1)N1CCc2ccccc21", "Mtb cholesterol medium": 11.29, "Mtb glucose medium": 18.36}
{"structure": "COc1ccnc(N2CCN(C(=O)NCc3ccc(C)s3)CC2)n1", "Mtb cholesterol medium": 1.843, "Mtb glucose medium": 8.609}
{"structure": "Cl.O=C(O)[C@@H]1CCCN1c1nccc(Nc2ccccc2)n1", "Mtb cholesterol medium": -20.69, "Mtb glucose medium": -30.68}
{"structure": "O=S(=O)(Cc1ccccc1CN1CCOCC(O)C1)c1ccccc1", "stereo": "centres unmarked", "Mtb cholesterol medium": -42.32, "Mtb glucose medium": -38.77}
{"structure": "N[C@H]1CC[C@@H](n2cc(C(=O)NC3COc4ccccc43)nn2)CC1", "stereo": "some centres unmarked", "Mtb cholesterol medium": 8.098, "Mtb glucose medium": 1.73}
{"structure": "Cc1cc(NCc2cc(C)oc2C(F)(F)F)n2nc(C)cc2n1", "Mtb cholesterol medium": 19.25, "Mtb glucose medium": 14.92}
{"structure": "Cc1nc(C)n(CCC(=O)NCC2CCCOC2)n1", "stereo": "centres unmarked", "Mtb cholesterol medium": "-17.73 and -18.29", "Mtb glucose medium": -10.87}
{"structure": "COC(=O)N1CCCC(C(=O)Nc2ccccc2CN2CCCC2)C1", "stereo": "centres unmarked", "Mtb cholesterol medium": -11.53, "Mtb glucose medium": "5.664 and -0.5184"}
{"structure": "[H][C@@]12CN(S(=O)(=O)N(C)C)C[C@]1([H])N(Cc1ccccc1OC)C(=O)O2", "Mtb cholesterol medium": "16.12 and -7.253", "Mtb glucose medium": 19.66}
{"structure": "CCN1CCn2c(C)cnc2C12CCN(C(=O)C(C)C)CC2.O=C(O)C(F)(F)F.O=C(O)C(F)(F)F", "Mtb cholesterol medium": "-4.295 and -5.68", "Mtb glucose medium": -19.84}
{"structure": "COc1cccc([C@H]2CN(C(=O)c3cc(C)on3)C[C@@H]2N)c1", "Mtb cholesterol medium": 20.07, "Mtb glucose medium": "-0.1023 and 1.318"}
{"structure": "Cc1nc(C)n(CC2CCCN(Cc3ncc(C(C)(C)C)o3)C2)n1", "stereo": "centres unmarked", "Mtb cholesterol medium": -15.41, "Mtb glucose medium": -11.1}
{"structure": "CC(C)(C)CC(=O)NCC1CCCS1", "stereo": "centres unmarked", "Mtb cholesterol medium": 1.523, "Mtb glucose medium": "-5.062 and 8.901"}
{"structure": "O=C(c1cnccn1)N(CCO)Cc1cc(Br)ccc1F", "Mtb cholesterol medium": 36.11, "Mtb glucose medium": "2.991 and 8.406"}
{"structure": "O=C(COc1coc(CN2CCCCCC2)cc1=O)c1ccccc1", "Mtb cholesterol medium": -21.08, "Mtb glucose medium": "-19.06 and -9.865"}
{"structure": "NC(=O)N1CCCC(C(=O)NCc2noc(Cc3ccccc3)n2)C1", "stereo": "centres unmarked", "Mtb cholesterol medium": 14.75, "Mtb glucose medium": "3.689 and 2.359"}
{"structure": "CCC(NC(=O)Nc1cc(F)c(OC)c(F)c1)c1noc(C)n1", "stereo": "centres unmarked", "Mtb cholesterol medium": 18.71, "Mtb glucose medium": 38.52}
{"structure": "CN(C)S(=O)(=O)c1ccc(CN2CCCC2c2ccccc2)o1", "stereo": "centres unmarked", "Mtb cholesterol medium": 20.24, "Mtb glucose medium": 7.166}
{"structure": "COC(=O)c1cc(C(=O)N2CCCC(C)C2)n(-c2ccccc2)n1", "stereo": "centres unmarked", "Mtb cholesterol medium": -7.217, "Mtb glucose medium": -4.298}
{"structure": "Cc1cc(C)nc(CN(C)C(=O)C(c2cccnc2)N2CCCC2)c1", "stereo": "centres unmarked", "Mtb cholesterol medium": -16.53, "Mtb glucose medium": -29.08}
{"structure": "Cc1ccc(C(=O)NCCCn2cncn2)c(=O)[nH]1", "Mtb cholesterol medium": -28.85, "Mtb glucose medium": 8.57}
{"structure": "Nc1nc(SCc2ccc3c(c2)OCO3)ns1", "Mtb cholesterol medium": 6.56, "Mtb glucose medium": 18.42}
{"structure": "COc1ccc(CC2(CO)CCN(c3cc(C#N)ccn3)CC2)cc1", "Mtb cholesterol medium": -7.882, "Mtb glucose medium": 1.883}

Repeated from the top, 2 entries:

{"structure": "O=S(=O)(N1CCOCC1)N1CCCC1Cn1cccn1", "stereo": "centres unmarked", "Mtb cholesterol medium": -5.62, "Mtb glucose medium": -29.04}
{"structure": "O=C(O)c1cc(-c2ccncc2)cc(S(=O)(=O)NCc2ccccn2)c1", "Mtb cholesterol medium": -3.6, "Mtb glucose medium": 1.962}

The values are deposited in ChEMBL (CHEMBL3988442, “University of Dundee, Small-Polar-MMV Screening Library” (2021)).